Laboratory results: article PMC11149843
No constants are given. Whether binding was seen depends on the method and setting. Binding seen in cells or lysates may run through a third protein. Some results given as binding are weak or reduced against the parent protein; the word gives no strength. Sequences can lack the tags named with a protein.

T1: Mcm4-GFP (Saccharomyces cerevisiae) (UniProt P30665)
T1 sequence: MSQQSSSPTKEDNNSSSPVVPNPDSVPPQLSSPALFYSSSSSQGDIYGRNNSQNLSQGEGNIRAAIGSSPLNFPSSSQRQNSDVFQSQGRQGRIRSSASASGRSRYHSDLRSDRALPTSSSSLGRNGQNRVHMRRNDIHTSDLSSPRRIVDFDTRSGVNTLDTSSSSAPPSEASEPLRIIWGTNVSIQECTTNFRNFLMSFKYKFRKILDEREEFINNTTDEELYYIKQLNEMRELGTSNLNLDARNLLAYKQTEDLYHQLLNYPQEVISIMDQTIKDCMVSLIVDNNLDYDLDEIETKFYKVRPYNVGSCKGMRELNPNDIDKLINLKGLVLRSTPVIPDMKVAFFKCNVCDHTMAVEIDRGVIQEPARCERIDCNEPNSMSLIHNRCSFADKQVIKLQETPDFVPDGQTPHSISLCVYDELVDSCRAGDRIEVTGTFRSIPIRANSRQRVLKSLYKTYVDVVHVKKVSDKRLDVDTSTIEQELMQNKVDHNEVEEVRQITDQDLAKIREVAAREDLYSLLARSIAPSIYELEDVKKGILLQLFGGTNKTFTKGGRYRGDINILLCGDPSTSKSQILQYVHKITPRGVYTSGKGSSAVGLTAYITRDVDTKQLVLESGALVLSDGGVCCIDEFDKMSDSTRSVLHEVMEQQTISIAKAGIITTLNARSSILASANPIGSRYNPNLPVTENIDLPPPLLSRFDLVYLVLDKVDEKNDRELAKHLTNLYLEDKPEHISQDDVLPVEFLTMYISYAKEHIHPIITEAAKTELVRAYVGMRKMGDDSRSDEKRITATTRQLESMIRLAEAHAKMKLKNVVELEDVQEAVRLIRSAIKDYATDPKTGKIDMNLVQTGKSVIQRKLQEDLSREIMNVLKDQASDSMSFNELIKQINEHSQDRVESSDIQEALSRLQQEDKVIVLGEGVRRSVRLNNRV

T2: Mcm4 (Saccharomyces cerevisiae) (UniProt P30665)
T2 sequence: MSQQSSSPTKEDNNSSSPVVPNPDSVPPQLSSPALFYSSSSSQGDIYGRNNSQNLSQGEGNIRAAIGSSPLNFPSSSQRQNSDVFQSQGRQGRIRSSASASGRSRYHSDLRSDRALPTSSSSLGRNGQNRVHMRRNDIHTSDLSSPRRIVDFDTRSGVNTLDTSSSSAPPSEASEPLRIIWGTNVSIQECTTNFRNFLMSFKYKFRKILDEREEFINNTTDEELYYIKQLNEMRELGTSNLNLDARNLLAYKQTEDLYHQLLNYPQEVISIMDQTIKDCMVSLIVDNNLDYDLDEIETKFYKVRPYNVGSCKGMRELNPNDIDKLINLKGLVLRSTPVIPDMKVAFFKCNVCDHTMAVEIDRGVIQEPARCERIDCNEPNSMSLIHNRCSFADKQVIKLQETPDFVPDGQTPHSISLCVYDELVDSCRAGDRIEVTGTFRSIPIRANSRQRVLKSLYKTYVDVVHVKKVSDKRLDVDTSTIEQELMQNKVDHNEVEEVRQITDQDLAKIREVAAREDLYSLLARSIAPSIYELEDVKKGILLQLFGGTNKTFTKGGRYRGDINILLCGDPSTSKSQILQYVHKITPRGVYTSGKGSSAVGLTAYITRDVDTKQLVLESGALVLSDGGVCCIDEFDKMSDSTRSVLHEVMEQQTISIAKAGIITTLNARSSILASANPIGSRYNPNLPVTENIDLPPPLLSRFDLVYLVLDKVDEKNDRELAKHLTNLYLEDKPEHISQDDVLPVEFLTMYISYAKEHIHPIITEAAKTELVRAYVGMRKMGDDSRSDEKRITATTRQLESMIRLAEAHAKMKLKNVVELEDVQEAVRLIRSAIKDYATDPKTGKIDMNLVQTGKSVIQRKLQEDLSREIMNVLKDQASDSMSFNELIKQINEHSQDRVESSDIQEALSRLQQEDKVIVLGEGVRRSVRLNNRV

T3: Mcm4-VC (Saccharomyces cerevisiae) (UniProt P30665)
T3 sequence: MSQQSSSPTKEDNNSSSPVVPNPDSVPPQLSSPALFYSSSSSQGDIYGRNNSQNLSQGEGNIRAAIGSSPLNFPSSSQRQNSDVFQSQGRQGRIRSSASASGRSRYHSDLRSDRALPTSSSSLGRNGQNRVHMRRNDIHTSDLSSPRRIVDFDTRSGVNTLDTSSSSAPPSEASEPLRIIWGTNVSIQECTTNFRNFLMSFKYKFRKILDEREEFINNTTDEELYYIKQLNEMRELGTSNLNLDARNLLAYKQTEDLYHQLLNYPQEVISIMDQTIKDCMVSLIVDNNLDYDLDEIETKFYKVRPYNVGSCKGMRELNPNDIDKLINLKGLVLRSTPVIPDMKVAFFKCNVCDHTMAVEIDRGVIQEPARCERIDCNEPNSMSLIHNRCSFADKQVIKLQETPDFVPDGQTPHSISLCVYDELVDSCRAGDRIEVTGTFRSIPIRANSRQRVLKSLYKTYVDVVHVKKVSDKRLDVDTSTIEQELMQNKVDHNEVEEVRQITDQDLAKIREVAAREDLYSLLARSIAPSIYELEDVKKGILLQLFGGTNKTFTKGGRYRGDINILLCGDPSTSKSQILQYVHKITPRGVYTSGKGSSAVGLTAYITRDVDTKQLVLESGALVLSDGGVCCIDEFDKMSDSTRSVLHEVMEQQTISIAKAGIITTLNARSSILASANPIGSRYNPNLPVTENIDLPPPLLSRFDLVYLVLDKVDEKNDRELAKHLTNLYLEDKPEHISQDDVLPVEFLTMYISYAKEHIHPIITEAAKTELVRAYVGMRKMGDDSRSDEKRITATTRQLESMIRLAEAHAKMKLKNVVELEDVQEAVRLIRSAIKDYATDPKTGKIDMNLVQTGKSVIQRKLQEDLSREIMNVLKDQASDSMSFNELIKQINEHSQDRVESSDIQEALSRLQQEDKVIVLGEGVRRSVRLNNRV

T4: Mcm7 (Saccharomyces cerevisiae) (UniProt P38132)
T4 sequence: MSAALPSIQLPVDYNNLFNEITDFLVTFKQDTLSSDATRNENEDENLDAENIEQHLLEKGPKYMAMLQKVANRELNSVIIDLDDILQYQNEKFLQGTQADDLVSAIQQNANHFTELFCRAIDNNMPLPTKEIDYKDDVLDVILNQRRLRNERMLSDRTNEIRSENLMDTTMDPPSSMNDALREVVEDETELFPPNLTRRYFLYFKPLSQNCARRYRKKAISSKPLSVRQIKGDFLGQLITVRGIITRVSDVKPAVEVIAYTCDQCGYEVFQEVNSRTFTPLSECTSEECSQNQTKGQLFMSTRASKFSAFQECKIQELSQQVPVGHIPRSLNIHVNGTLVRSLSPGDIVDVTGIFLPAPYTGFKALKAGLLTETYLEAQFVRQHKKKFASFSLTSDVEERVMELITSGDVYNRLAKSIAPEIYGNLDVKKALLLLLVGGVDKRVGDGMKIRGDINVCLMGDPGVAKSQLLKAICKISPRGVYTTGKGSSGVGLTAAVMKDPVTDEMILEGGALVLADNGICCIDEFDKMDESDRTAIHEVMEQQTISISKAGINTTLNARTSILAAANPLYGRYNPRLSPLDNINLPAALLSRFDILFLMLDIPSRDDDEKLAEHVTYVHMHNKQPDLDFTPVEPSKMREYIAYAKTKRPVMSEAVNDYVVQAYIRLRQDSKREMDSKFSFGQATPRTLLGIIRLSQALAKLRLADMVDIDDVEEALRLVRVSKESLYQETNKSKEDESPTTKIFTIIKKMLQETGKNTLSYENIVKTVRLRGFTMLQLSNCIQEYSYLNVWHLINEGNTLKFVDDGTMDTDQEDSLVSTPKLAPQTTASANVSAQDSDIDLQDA


How the values were obtained:
[1] = target: T1, Mcm4-GFP (Saccharomyces cerevisiae); test: co-IP; GFP-trap magnetic beads, NP40 lysis buffer (50mM Tris pH 7.5, 150mM NaCl, 1% NP40), lysate treated with MNaseI or benzonase, overnight 4°C; western blot; asynchronous or G1-arrested cultures treated or not with 0.025% MMS (or 0.2M HU) for 2 hours; also in rnr4Δ and dif1Δ wtm1Δ cells
[2] = target: T2, Mcm4 (Saccharomyces cerevisiae); test: co-IP; anti-Mcm4 antibody (3 μg/ml, overnight 4°C) and protein G dynabeads, NP40 lysis buffer; western blot with anti-Mcm4 and anti-Rnr antibodies; asynchronous cultures treated or not with 0.025% MMS for 2 hours; cells with Mcm4 or Mcm4-VC and Rnr4 or Rnr4-VN, with or without plasmid p314RNR4
[3] = target: T3, Mcm4-VC (Saccharomyces cerevisiae); test: as above
[4] = target: T1, Mcm4-GFP (Saccharomyces cerevisiae); test: co-IP; as a2, in dun1Δ cells, in the absence and presence of 0.025% MMS
[5] = target: T4, Mcm7 (Saccharomyces cerevisiae); test: co-IP; anti-Mcm7 antibody and protein G dynabeads; asynchronous cultures of wild-type cells
[6] = target: T4, Mcm7 (Saccharomyces cerevisiae); test: co-IP; anti-Mcm7 antibody and protein G dynabeads; asynchronous cultures of the MCM4-VC mutant
[7] = target: T4, Mcm7 (Saccharomyces cerevisiae); test: as above; remark: listed apart in the source
[8] = target: T1, Mcm4-GFP (Saccharomyces cerevisiae); test: co-IP; as a2, GFP-trap magnetic beads, asynchronous cultures under unperturbed conditions only (no MMS, no HU)
[9] = target: T3, Mcm4-VC (Saccharomyces cerevisiae); test: split reporter; BiFC with the VN and VC domains of Venus on endogenously tagged proteins; fluorescence microscopy and flow cytometry of yeast cells synchronized in G1 and released, with and without 0.025% MMS; also in dif1Δ wtm1Δ cells

Binder | binding [1] | binding [2] | binding [3] | binding [4] | binding [5] | binding [6] | binding [7] | binding [8] | binding [9]
Rnr3 (protein, UniProt P21672 1-869) MYVIKRDGRKEPVQFDKITSRITRLSYGLDPNRIDAVKVTQRIISGVYSGVTTVELDNLAAETCAYMTTVHPDYATLAARIAISNLHKQTTKQFSKVIEDLHDWINPATGKHAPMISDEIYNIVMENKDTLNSAIVYDRDFQYTYFGFKTLERSYLLRLNGEVAERPQHLVMRVALGIHGSDIESVLKTYNLMSLRYFTHASPTLFNAGTPHPQMSSCFLIAMKDDSIEGIYDTLKECAMISKTAGGVGLHINNIRSTGSYIAGTNGTSNGLIPMIRVFNNTARYVDQGGNKRPGAFALFLEPWHADIFDFVDIRKTHGKEEIRARDLFPALWIPDLFMKRVQEDGPWTLFSPSAAPGLDDVWGDEFEELYTRYEREGRGKTIKAQKLWYAILQAQTETGTPFMVYKDACNRKTNQQNLGTIKSSNLCCEIVEYSSPDETAVCNLASIALPAFVEVSEDGKTASYNFERLHEIAKVITHNLNRVIDRNYYPVPEARNSNMKHRPIALGVQGLADTYMMLRLPFESEEAQTLNKQIFETIYHATLEASCELAQKEGKYSTFEGSPASKGILQFDMWNAKPFGMWDWETLRKDIVKHGLRNSLTMAPMPTASTSQILGYNECFEPVTSNMYSRRVLSGEFQVVNPYLLRDLVDLGIWDDSMKQYLITQNGSIQGLPNVPQELKELYKTVWEISQKTIINMAADRAIYIDQSHSLNLFLQAPSMGKITSMHFYGWKKGLKTGMYYLRTQAASAAIQFTIDQEVADQAATHIASVSELDRPVYVPKGTKFSEQKAASALTESSDNEKDASPVPSEQSSVSSAMSNVKLEDSVAPAVPTETIKEDSDEKKCDIYNEKVIACTAPTPEACESCSG | binds | binds | binds | – | – | – | – | – | –
Rnr1 (protein, UniProt P21524 1-888) MYVYKRDGRKEPVQFDKITARISRLCYGLDPKHIDAVKVTQRIISGVYEGVTTIELDNLAAETCAYMTTVHPDYATLAARIAISNLHKQTTKQFSKVVEDLYRYVNAATGKPAPMISDDVYNIVMENKDKLNSAIVYDRDFQYSYFGFKTLERSYLLRINGQVAERPQHLIMRVALGIHGRDIEAALETYNLMSLKYFTHASPTLFNAGTPKPQMSSCFLVAMKEDSIEGIYDTLKECALISKTAGGIGLHIHNIRSTGSYIAGTNGTSNGLIPMIRVFNNTARYVDQGGNKRPGAFALYLEPWHADIFDFIDIRKNHGKEEIRARDLFPALWIPDLFMKRVEENGTWTLFSPTSAPGLSDCYGDEFEALYTRYEKEGRGKTIKAQKLWYSILEAQTETGTPFVVYKDACNRKSNQKNLGVIKSSNLCCEIVEYSAPDETAVCNLASVALPAFIETSEDGKTSTYNFKKLHEIAKVVTRNLNRVIDRNYYPVEEARKSNMRHRPIALGVQGLADTFMLLRLPFDSEEARLLNIQIFETIYHASMEASCELAQKDGPYETFQGSPASQGILQFDMWDQKPYGMWDWDTLRKDIMKHGVRNSLTMAPMPTASTSQILGYNECFEPVTSNMYSRRVLSGEFQVVNPYLLRDLVDLGIWDEGMKQYLITQNGSIQGLPNVPQELKDLYKTVWEISQKTIINMAADRSVYIDQSHSLNLFLRAPTMGKLTSMHFYGWKKGLKTGMYYLRTQAASAAIQFTIDQKIADQATENVADISNLKRPSYMPSSASYAASDFVPAAVTANATIPSLDSSSEASREASPAPTGSHSLTKGMAELNVQESKVEVPEVPAPTKNEEKAAPIVDDEETEFDIYNSKVIACAIDNPEACEMCSG | binds | binds | binds | binds | binds | binds | no binding (condition: in cells of the MCM4-VC mutant) | binds weakly | –
Rnr4-VN (protein, UniProt P49723 1-345) MEAHNQFLKTFQKERHDMKEAEKDEILLMENSRRFVMFPIKYHEIWAAYKKVEASFWTAEEIELAKDTEDFQKLTDDQKTYIGNLLALSISSDNLVNKYLIENFSAQLQNPEGKSFYGFQIMMENIYSEVYSMMVDAFFKDPKNIPLFKEIANLPEVKHKAAFIERWISNDDSLYAERLVAFAAKEGIFQAGNYASMFWLTDKKIMPGLAMANRNICRDRGAYTDFSCLLFAHLRTKPNPKIIEKIITEAVEIEKEYYSNSLPVEKFGMDLKSIHTYIEFVADGLLQGFGNEKYYNAVNPFEFMEDVATAGKTTFFEKKVSDYQKASDMSKSATPSKEINFDDDF | – | binds | binds | – | – | – | – | – | binds
